Laboratory results: patent US10064843B2, “Bis-amide derivative and use thereof” (University-Industry Cooperation Group of Kyung Hee …, priority 2013, dated 2018)
Some entries share one result that the patent states for a list of compounds.

Test system: HCV replication cells
Assay: MTT cytotoxicity in HCV replication cells
Format: cell-based, human
Conditions: up to 10 μM, FIG. 7b

Question: With `COc1cc(C(C(=O)NC2CCCCC2)N(C(=O)Cc2c[nH]c3ccccc23)c2ccc(C(C)C)cc2)cc(OC)c1OC` (stereo not shown) [WJCPA-126, N-cyclohexyl-2-[(2-1H-indol-3-yl-acetyl)-(4-isopropyl-phenyl)-amino]-2-(3,4,5-trimethoxy-phenyl)-acetamide] as the molecule, how does the cell viability read?
Answer: ≥ 80%
